From PMC10845154
No constants are given. Whether binding was seen depends on the method and setting. In cells and extracts the contact can be indirect.

Biological target: T1, ISOFLAVONE SYNTHASE2 (GmIFS2) (soybean (Glycine max)) (UniProt Q9SWR5)
T1 sequence: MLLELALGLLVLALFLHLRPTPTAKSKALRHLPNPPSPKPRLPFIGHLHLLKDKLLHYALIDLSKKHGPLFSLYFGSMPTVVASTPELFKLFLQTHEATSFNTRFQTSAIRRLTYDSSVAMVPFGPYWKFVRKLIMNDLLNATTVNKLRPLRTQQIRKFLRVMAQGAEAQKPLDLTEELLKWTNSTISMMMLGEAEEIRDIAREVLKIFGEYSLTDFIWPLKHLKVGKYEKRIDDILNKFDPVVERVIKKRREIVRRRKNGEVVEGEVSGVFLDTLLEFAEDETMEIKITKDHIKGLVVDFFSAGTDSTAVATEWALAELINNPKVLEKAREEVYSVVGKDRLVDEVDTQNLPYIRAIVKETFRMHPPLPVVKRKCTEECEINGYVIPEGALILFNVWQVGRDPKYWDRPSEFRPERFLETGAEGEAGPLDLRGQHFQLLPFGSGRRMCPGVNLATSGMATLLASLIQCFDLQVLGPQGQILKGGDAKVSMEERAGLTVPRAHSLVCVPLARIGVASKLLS
Test: split reporter; BiFC: GmADT-YC (or AtADT5, PvMATE8-YC, AtCRA1-YC) co-expressed with GmIFS2-YN in N. benthamiana leaves, 1:1 (v/v) co-infiltration, 35S promoter, confocal microscopy 48 h post-infiltration (Figure 7)

## PvMATE8, a protoanthocyanidin transporter protein from common bean
  binding: no binding
